From PubChem BioAssay AID1347075 (National Center for Advancing Translational Sciences (NCATS), 2019)
Among all 400,000 compounds or so, about 5,500 (1.4%) were called active. This list was built around the results that the source calls inconclusive (neither active nor inactive); the mix of calls is not that of the screen. Calls come from the whole dose curve; as a rule, active = well fitted cell-killing curve with a large enough effect; inconclusive = small, poorly fitted or top-dose-only effect, or effect the other way; inactive = flat fitted curve, though single readings scatter. Where the call is inconclusive, the potency comes from a doubtful curve fit.

Assay: qHTS assay for MDR1-selective chemotherapeutics: Primary screen using the parental adenocarcinoma cell KB-3-1; note: nearly all actives have a fitted effect of over 60% in size
Details: KB-3-1 viability, CellTiter-Glo ATP luminescence, 72 h; activity change, negative = cytotoxic: at 46.1 µM (top of the series)
How it was run: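 Luminescent ATP read-out (CellTiter-Glo) measures survival of drug-naive KB-3-1 cells after 72 h compound exposure at 37 °C. Titration series was screened from lowest to highest concentration, with DMSO vehicle plates as background controls.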
% is set by controls: 0 for no effect and ±100 for the full control effect; potency is the fitted concentration of half-maximal effect.

**Q.** For `O=C(/C=C/c1cccs1)c1cc(Cl)ccc1O`, which Potency is on record?
**A.** Its Potency is inconclusive: 18.4 µM [cytotoxic, partial curve, poor fit].

**Q.** For `CN(Cc1cn(Cc2ccc(C(F)(F)F)cc2)nn1)C1CN(Cc2cn(Cc3ccc(C(F)(F)F)cc3)nn2)S(=O)(=O)C1` (centres undefined), which Potency is on record?
**A.** The Potency was active: 10.3 µM.

**Q.** For `COC(=O)[C@@]1(Cc2ccc(F)cc2)[C@H]2c3cc(C(=O)N4CCCC4)n(Cc4ccc(C(F)(F)F)nc4)c3C[C@H]2CN1C(=O)c1ccccc1`, which Potency is on record?
**A.** The Potency was inconclusive: 18.4 µM [cytotoxic, single point].

**Q.** Which Potency does the source give for `Cc1cc(C(=O)CN2C(=O)C(=O)N(Cc3ccccc3)C2=O)c(C)n1Cc1ccc(F)cc1` here?
**A.** The Potency was inconclusive: 23.1 µM [cytotoxic, single point].

**Q.** Which Potency does the source give for `COCCCNc1nc(NCc2cccc(Cl)c2)c2cnn(C)c2n1` here?
**A.** The Potency was inconclusive: 29.1 µM [cytotoxic, single point].

**Q.** For `O=C1c2ccccc2NC(c2ccc(Br)s2)N1O` (centres undefined), which Potency is on record?
**A.** The Potency was inconclusive: 29.1 µM [cytotoxic, single point].

**Q.** With `COc1cc(-c2ccc(NC(=O)CN3CCC(C)CC3)c(OC)c2)ccc1NC(=O)CN1CCC(C)CC1` as the compound, how does the Potency read?
**A.** The Potency was inconclusive: 4.61 µM [cytotoxic, full curve].

**Q.** Which Potency does the source give for `C/C(=N\NC(=O)c1c(C)nc2ccccn12)c1ccccc1F` here?
**A.** Its Potency is inconclusive: 18.4 µM [rising, single point].

**Q.** With `CC(C)(O)[C@H]1Cc2cc3ccc(=O)oc3cc2O1` as the compound, how does the activity change, negative = cytotoxic read?
**A.** The activity change, negative = cytotoxic was inconclusive: 39.8%.

**Q.** With `COc1cc2c(C(=O)NCCN(C)C)cn(CC(C)C)c(=O)c2cc1OC` as the compound, how does the Potency read?
**A.** The Potency was “inactive”.

**Q.** For `C=CCNc1sc(C(=O)c2ccc(C)cc2)c(N)c1C#N`, which Potency is on record?
**A.** The Potency was “inactive”.

**Q.** For `Cc1c(C(=O)Nc2ccc(C(C)C)cc2)sc2nc3n(c(=O)c12)CCC3`, which Potency is on record?
**A.** The Potency was inconclusive: 20.6 µM [cytotoxic, single point].

**Q.** Which Potency does the source give for `Cc1cccc(/C=C/c2cccs2)n1` here?
**A.** Its Potency is active: 2.31 µM.

**Q.** For `FC(F)(F)C(F)(F)c1nc2nc(Cl)c(Cl)nc2[nH]1`, which Potency is on record?
**A.** The Potency was “inactive”.

**Q.** With `Cc1ccc(NC(=O)O/N=C/c2ccc(N(C)C)cc2)cc1` as the compound, how does the Potency read?
**A.** Its Potency is “inactive”.

**Q.** For `C=C[C@H](CC(C)C)N(Cc1ccccc1)S(=O)(=O)N(Cc1ccccc1)[C@H](C=C)CC(C)C`, which Potency is on record?
**A.** Its Potency is “inactive”.

**Q.** For `CSc1ccc(CN(C)C(=O)COc2ccc(C(=O)c3ccccc3)cc2)cc1`, which Potency is on record?
**A.** The Potency was active: 20.6 µM.

**Q.** Which Potency does the source give for `CCOc1ccccc1NC(=O)c1ccccc1N(C)S(=O)(=O)c1ccc(C)cc1` here?
**A.** Its Potency is inconclusive: 29.1 µM [cytotoxic, single point].

**Q.** With `CN(C)c1ccc(C=NCC2COc3ccccc3O2)cc1` (centres undefined) as the compound, how does the Potency read?
**A.** Its Potency is “inactive”.

**Q.** Which Potency does the source give for `CC(=O)c1sc(Nc2ccccn2)nc1C` here?
**A.** Its Potency is active: 14.6 µM.

**Q.** Which Potency does the source give for `CCOC(=O)c1ccc(CN2CCCC(C)(C(=O)NCCOC)C2)cc1` (centres undefined) here?
**A.** The Potency was “inactive”.

**Q.** Which Potency does the source give for `O=C(CSc1ccc(-c2ccco2)nn1)Nc1ccc(F)cc1F` here?
**A.** Its Potency is inconclusive: 16.4 µM [cytotoxic, single point].

**Q.** With `O=c1cc(-c2ccccc2)oc2cccc(O)c12` as the compound, how does the Potency read?
**A.** The Potency was “inactive”.

**Q.** Which Potency does the source give for `COc1cccc(NC(=O)CSc2nc3ccccc3c(=O)n2CCCC(=O)NCCCN2CCOCC2)c1` here?
**A.** Its Potency is inconclusive: 18.4 µM [rising, partial curve].

**Q.** With `O=c1ccc2c([nH]1)CCCCCCCCCC2` as the compound, how does the Potency read?
**A.** Its Potency is inconclusive: 25.9 µM [cytotoxic, single point].

**Q.** Which Potency does the source give for `Cc1[nH][nH]c(=O)c1C(c1ccc(-c2ccc(C(=O)O)cc2)o1)c1c(C)[nH][nH]c1=O` here?
**A.** Its Potency is “inactive”.

**Q.** With `C/C=C/c1ccc(OC)c(OC(C)=O)c1` as the compound, how does the Potency read?
**A.** Its Potency is “inactive”.

**Q.** With `CCn1c(NC(=O)/C=C/c2ccc(F)cc2)nc2ccccc21` as the compound, how does the Potency read?
**A.** Its Potency is inconclusive: 18.4 µM [cytotoxic, single point].

**Q.** With `OC(c1ccc(-c2ccccc2)cc1)c1ncc(-c2ccc(C(F)(F)F)cc2)[nH]1` (centres undefined) as the compound, how does the Potency read?
**A.** Its Potency is “inactive”.

**Q.** Which Potency does the source give for `Cc1ccc2nc(-c3ccc(NS(=O)(=O)c4ccccc4)cc3)sc2c1` here?
**A.** Its Potency is “inactive”.

**Q.** With `COc1ccc(/C=C2\SC(=S)N(CCC(=O)N(CCO)Cc3ccccc3)C2=O)cc1OC` as the compound, how does the Potency read?
**A.** The Potency was inconclusive: 29.1 µM [cytotoxic, single point].

**Q.** Which Potency does the source give for `COc1cc(/C=C2/CCC/C(=C\c3cc(O)c(OC)c(Cl)c3)C2=O)cc(Cl)c1O` here?
**A.** Its Potency is inconclusive: 29.1 µM [cytotoxic, single point].

**Q.** For `O=S(=O)(c1ccccc1)n1c(C(O)c2ccccn2)cc2ccccc21` (centres undefined), which Potency is on record?
**A.** Its Potency is inconclusive: 20.6 µM [rising, single point].

**Q.** With `Oc1c(CN2CCN(c3ccc(F)cc3)CC2)cc(Cl)c2cccnc12` as the compound, how does the Potency read?
**A.** Its Potency is inconclusive: 3.26 µM [cytotoxic, partial curve, poor fit].

**Q.** Which Potency does the source give for `O=C(Nc1ccc2c(c1)N(Cc1ccccc1)C(=O)c1ccccc1S2)NC1CC1` here?
**A.** Its Potency is inconclusive: 20.6 µM [cytotoxic, single point].

**Q.** With `COc1ccc(SCC(=O)Nc2ccccc2Cl)cc1` as the compound, how does the activity change, negative = cytotoxic read?
**A.** The activity change, negative = cytotoxic was inconclusive: 7.99%.

**Q.** For `O=C(Cc1ccccc1)Nc1ccc2oc(=O)ccc2c1`, which Potency is on record?
**A.** Its Potency is inconclusive: 3.66 µM [rising, partial curve, poor fit].

**Q.** With `Cc1ccc(-c2cc(C(=O)Nc3cccnc3)c3ccccc3n2)s1` as the compound, how does the Potency read?
**A.** The Potency was inconclusive: 29.1 µM [rising, single point].

**Q.** For `Cc1cc(-c2ccc(S(=O)(=O)NCc3ccc(Cl)cc3)cc2)on1`, which Potency is on record?
**A.** Its Potency is “inactive”.

**Q.** With `COCCCN1C(=O)c2[nH]nc(-c3ccccc3O)c2C1c1ccc(Cl)cc1` (centres undefined) as the compound, how does the Potency read?
**A.** Its Potency is inconclusive: 20.6 µM [cytotoxic, single point].

**Q.** For `CCOC1=C2[C@H](c3ccccc3F)N(S(=O)(=O)c3ccc(C)cc3)C[C@H]2n2c(=O)n(-c3ccccc3)c(=O)n2C1`, which Potency is on record?
**A.** Its Potency is “inactive”.

**Q.** Which Potency does the source give for `COc1ccc(NS(=O)(=O)c2ccc(N3CCOCC3)c(NC(=O)c3ccco3)c2)cc1` here?
**A.** Its Potency is inconclusive: 5.17 µM [cytotoxic, partial curve].

**Q.** With `COc1ccc(C(=O)O/N=C(\N)c2ccccn2)c(OC)c1` as the compound, how does the Potency read?
**A.** The Potency was inconclusive: 25.9 µM [cytotoxic, single point].

**Q.** For `COC(=O)C(C)Sc1nc2c(cnn2-c2ccccc2)c(=O)[nH]1` (centres undefined), which Potency is on record?
**A.** Its Potency is inconclusive: 0.0058 µM [rising, full curve, poor fit].

**Q.** Which Potency does the source give for `CCOC(=O)C1=C(C)Nc2ncnn2C1c1cccs1` (centres undefined) here?
**A.** Its Potency is “inactive”.

**Q.** For `Cc1cc(S(=O)(=O)NCc2ccc(N3CCN(C)CC3)cc2)c(C)s1`, which Potency is on record?
**A.** Its Potency is “inactive”.

**Q.** Which Potency does the source give for `COc1ccc(-c2nc3ccccc3n3c(-c4cccc(C)c4)c4c(=O)n(C)c(=O)n(C)c4c23)cc1OC` here?
**A.** Its Potency is inconclusive: 23.1 µM [cytotoxic, single point].

**Q.** For `COc1ccc(-c2nc3c(C(=O)NCCN(C)C)cccc3c3ccccc23)cc1`, which Potency is on record?
**A.** Its Potency is inconclusive: 29.1 µM [cytotoxic, single point].

**Q.** Which Potency does the source give for `O=C(CSc1nnc(-c2ccc(S(=O)(=O)N3CCCC3)cc2)o1)NCc1ccccc1` here?
**A.** Its Potency is inconclusive: 20.6 µM [cytotoxic, single point].

**Q.** Which Potency does the source give for `CS(=O)(=O)c1ccc(S(=O)CC(=O)Oc2ccc(Cl)cc2)c([N+](=O)[O-])c1` (centres undefined) here?
**A.** The Potency was active: 20.6 µM.

**Q.** With `CCCCNC(=O)C1CCC(Cn2c(=O)c3sccc3n(Cc3ccccc3)c2=O)CC1` (centres undefined) as the compound, how does the Potency read?
**A.** Its Potency is “inactive”.

**Q.** With `O=C(Cn1c(=O)n(CCc2ccccc2)c(=O)c2cccnc21)Nc1ccc(F)cc1` as the compound, how does the Potency read?
**A.** Its Potency is inconclusive: 0.184 µM [rising, full curve].

**Q.** For `Clc1ccc(-c2nnnn2-c2ccc(Cl)cc2)cc1`, which Potency is on record?
**A.** The Potency was inconclusive: 3.26 µM [rising, partial curve, poor fit].

**Q.** Which Potency does the source give for `CCCCn1c(=NC(=O)c2ccc3c(c2)OCO3)c(C#N)cc2c(=O)n3cccc(C)c3nc21` here?
**A.** The Potency was inconclusive: 18.4 µM [cytotoxic, single point].

**Q.** Which Potency does the source give for `CC[C@@]12C(=O)N(c3cccc(Cl)c3)C(=O)N1[C@H](c1ccc(Br)cc1)[C@@H]1C(=O)N(C(C)(C)C)C(=O)[C@@H]12` here?
**A.** The Potency was inconclusive: 18.4 µM [cytotoxic, single point].

**Q.** With `NC(Cc1ccc(Cl)cc1)c1csc(NC(=O)NCCc2ccccc2)n1` (centres undefined) as the compound, how does the Potency read?
**A.** The Potency was inconclusive: 29.1 µM [cytotoxic, single point].

**Q.** For `Cc1ccccc1N1C(=S)NC2c3ccccc3OC1(C)C2C(=O)N(C)C` (centres undefined), which Potency is on record?
**A.** Its Potency is “inactive”.

**Q.** With `C[n+]1cc(-c2ccccc2)n2c1CCCCC2` as the compound, how does the Potency read?
**A.** Its Potency is inconclusive: 29.1 µM [cytotoxic, single point].

**Q.** Which Potency does the source give for `Cc1ccn2c(NCc3ccccc3)c(-c3cccc(SC4CCCCC4)c3)nc2c1` here?
**A.** The Potency was inconclusive: 29.1 µM [cytotoxic, single point].

**Q.** Which Potency does the source give for `Cc1ccc(C)c(-c2nnc(NC(=O)Cc3ccc(F)cc3)o2)c1` here?
**A.** Its Potency is inconclusive: 20.6 µM [cytotoxic, single point].

**Q.** With `Cc1ccnc(NC(=S)NC(=O)c2cncc(Br)c2)c1` as the compound, how does the Potency read?
**A.** The Potency was “inactive”.

**Q.** Which Potency does the source give for `Cc1cc(C)cc(NC(=O)CSc2oc(-c3ccccc3)nc2S(=O)(=O)c2ccc(Cl)cc2)c1` here?
**A.** Its Potency is inconclusive: 29.1 µM [cytotoxic, single point].

**Q.** Which Potency does the source give for `CCOC(=O)c1ccccc1NC(=O)Cn1ncc2c1-c1ccccc1OC2` here?
**A.** Its Potency is inconclusive: 16.4 µM [cytotoxic, single point].

**Q.** Which Potency does the source give for `COc1ccccc1-c1nnc(NC(=O)c2ccc(S(=O)(=O)N(C)C)cc2)o1` here?
**A.** The Potency was inconclusive: 18.4 µM [cytotoxic, single point].

**Q.** With `CCOc1ccc(NC(=O)c2nc(S(=O)(=O)Cc3ccccc3C)ncc2Cl)cc1` as the compound, how does the Potency read?
**A.** The Potency was inconclusive: 23.1 µM [cytotoxic, single point].

**Q.** Which Potency does the source give for `CCc1ccc(C(=O)NNc2ccc(F)cc2F)cc1` here?
**A.** Its Potency is inconclusive: 29.1 µM [cytotoxic, partial curve, poor fit].

**Q.** Which Potency does the source give for `CN(c1ccccc1)S(=O)(=O)c1cc(C(=O)NCc2ccco2)ccc1Cl` here?
**A.** The Potency was “inactive”.

**Q.** Which Potency does the source give for `CCOc1ccc2[nH]c(=O)c(C(c3nnnn3Cc3ccco3)N3CCCC(C)C3)cc2c1` (centres undefined) here?
**A.** The Potency was “inactive”.

**Q.** Which Potency does the source give for `CN(C)S(=O)(=O)N1CCC(Oc2ccc(C(=O)NCc3cnn(C)c3)cc2)CC1` here?
**A.** Its Potency is inconclusive: 9.2 µM [cytotoxic, partial curve, poor fit].
